From PMC4855186, “Characterization of primary human hepatocyte spheroids as a model system for drug-induced liver injury, liver function and disease” (Scientific Reports, 2016)

Legend:
[1] = human plasma Cmax; ref 21 (amiodarone), 22 (bosentan), 23 (diclofenac), 24 (fialuridine), 25 (tolcapone); read-out: In vivo Cmax; cited from earlier work
PHH spheroids = assay: Chronic toxicity assay in PHH spheroids, viability by cellular ATP content; format: cell-based, human
Method: Cryopreserved PHH (obtained from […], France or Bioreclamation IVT, USA) or fresh hepatocytes (obtained from patients subject to liver resections at Huddinge University Hospital, Stockholm, Sweden) were used for formation of spheroid cultures. Hepatocytes obtained from patient livers were isolated as previously described. Use of the liver specimens for this purpose was approved by the Ethics Committee at Karolinska Institutet ([…] Stockholm) and studies were carried out in accordance with the approved guidelines. Written informed consent was obtained from all donors of liver material. Cells were seeded into ultra-low attachment 96-well plates (Corning) at 1,500 viable cells per well and subsequently centrifuged at 100 × g for 2 min. […] Cell viability was assessed by determining the ATP content of single PHH spheroids with the CellTiter-Glo Luminescent Cell Viability Assay (Promega, Sweden). At the same time-points, cell culture medium was collected and albumin concentrations were determined by ELISA (Bethyl laboratories, USA). Absolute ATP and albumin values were normalized to spheroid volumes as determined from bright field imaging to compensate for compaction. […] Cell viability was assessed by determining the ATP content as indicated above. EC50 values were determined using GraphPad Prism (GraphPad Software, USA).

CCCCc1oc2ccccc2c1C(=O)c1cc(I)c(OCCN(CC)CC)c(I)c1 [Amiodarone, amiodarone]
Cmax [1]: 800 nM | Fold changes in EC50 vs. 48 h (8 d) (PHH spheroids; 8 d vs 48 h exposure): 15.4 fold | Fold changes in EC50 vs. 48 h (28 d) (PHH spheroids; 28 d vs 48 h exposure): 62.5 fold
